Measurements as given in patent US20240209302A1, “SYSTEMS, METHODS, AND DEVICES FOR EX VIVO ANALYSIS OF RESECTED TISSUE SAMPLES” (The United States of America,as represented by the …, priority 2020, published 2024).
At least one structure is not confirmed: it was looked up by name or label, or the drawing left a doubt.

Tested on: SDH-B deficient GIST metastases to the peritoneum
Assay: Decitabine treatment of GIST tissue in ex vivo perfusion system (H&E, IHC, live imaging)
Assay type: cell-based, human
Details: 5 μM; compared with control at day 0 and day 3
Source text: The system of FIG. 7A is also well-suited as a translational tool and/or as a tool for enrollment into clinical trials, especially where pre-clinical models are otherwise non-existent. For example, SDH-B deficient GIST is a rare subtype driven by epigenetic silencing of the gene, unresponsive to conventional agents (imatinib) and with no available cell lines or mouse models. Tissue from a patient with SDH-B deficient GIST was utilized in the system of FIG. 7A to investigate decitabine, a potential treatment option being evaluated for this population. Using early demethylation markers as a read-out, changes associated with decitabine treatment at physiologic and supraphysiologic doses were not detected. […] Sample platforms of tissue from the patient with GIST metastases to the peritoneum were cultured in perfusate supplemented with 0-10 μM decitabine. […] Stack projections of live images of control sample at day 0 and day 3 as well as a sample treated with 5 μM decitabine with fluorophore-conjugated antibodies against CD45 and CD117 also show no changes in the decitabine-treated tissue.
In any of the above discussed examples, tissue from system 700 was subject to similar histopathologic evaluations. […] Viability on H&E was defined as preservation of normal tissue architecture, intact nuclei, and normal population of immune cells (qualitative and quantitative). […]

Structure (SMILES): Nc1ncn([C@H]2C[C@H](O)[C@@H](CO)O2)c(=O)n1 [decitabine]
- live imaging with antibodies against CD45 and CD117, changes in treated tissue: no changes
